Laboratory results as given in US20200165257A1, “INHIBITORS OF PHOSPHOINOSITIDE 3-KINASE AND HISTONE DEACETYLASE FOR TREATMENT OF CANCER” (THE UNITED STATES OF AMERICA, AS REPRESENTED BY THE …, priority 2017, published 2020).
Some of these results come from one statement about several compounds together.

The chains behind the UniProt entries cited, without tags or fusion partners. Where a name states a change or a piece, a line headed by the entry shows the natural chain unless it says otherwise.
UniProt Q9UKV0, whole entry, species assumed: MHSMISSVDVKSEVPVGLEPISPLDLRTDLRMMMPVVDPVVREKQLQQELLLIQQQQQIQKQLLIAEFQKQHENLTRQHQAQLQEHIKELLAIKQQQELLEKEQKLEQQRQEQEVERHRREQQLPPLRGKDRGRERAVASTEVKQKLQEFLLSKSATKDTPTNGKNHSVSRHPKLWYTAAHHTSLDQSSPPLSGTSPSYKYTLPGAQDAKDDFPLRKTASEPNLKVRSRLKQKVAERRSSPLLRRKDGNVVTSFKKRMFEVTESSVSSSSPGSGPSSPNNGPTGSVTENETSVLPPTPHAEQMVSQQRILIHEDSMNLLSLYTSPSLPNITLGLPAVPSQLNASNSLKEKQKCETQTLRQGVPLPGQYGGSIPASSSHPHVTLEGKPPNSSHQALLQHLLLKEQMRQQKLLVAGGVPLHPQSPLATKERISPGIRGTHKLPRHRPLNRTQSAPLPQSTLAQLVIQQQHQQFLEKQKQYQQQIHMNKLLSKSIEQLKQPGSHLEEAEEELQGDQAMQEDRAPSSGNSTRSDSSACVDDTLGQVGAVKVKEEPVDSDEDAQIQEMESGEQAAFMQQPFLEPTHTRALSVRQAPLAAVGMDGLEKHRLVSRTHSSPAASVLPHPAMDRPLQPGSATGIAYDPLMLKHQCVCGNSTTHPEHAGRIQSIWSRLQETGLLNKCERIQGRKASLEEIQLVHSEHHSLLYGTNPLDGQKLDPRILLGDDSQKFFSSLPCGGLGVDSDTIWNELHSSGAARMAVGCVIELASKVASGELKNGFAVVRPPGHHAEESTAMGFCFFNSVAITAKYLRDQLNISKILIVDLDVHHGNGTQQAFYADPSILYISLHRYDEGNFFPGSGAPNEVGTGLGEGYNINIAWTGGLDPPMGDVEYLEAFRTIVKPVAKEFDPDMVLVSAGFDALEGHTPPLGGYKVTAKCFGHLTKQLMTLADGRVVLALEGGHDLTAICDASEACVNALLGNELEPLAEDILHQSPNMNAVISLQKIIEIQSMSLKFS
UniProt P56524, whole entry, species assumed: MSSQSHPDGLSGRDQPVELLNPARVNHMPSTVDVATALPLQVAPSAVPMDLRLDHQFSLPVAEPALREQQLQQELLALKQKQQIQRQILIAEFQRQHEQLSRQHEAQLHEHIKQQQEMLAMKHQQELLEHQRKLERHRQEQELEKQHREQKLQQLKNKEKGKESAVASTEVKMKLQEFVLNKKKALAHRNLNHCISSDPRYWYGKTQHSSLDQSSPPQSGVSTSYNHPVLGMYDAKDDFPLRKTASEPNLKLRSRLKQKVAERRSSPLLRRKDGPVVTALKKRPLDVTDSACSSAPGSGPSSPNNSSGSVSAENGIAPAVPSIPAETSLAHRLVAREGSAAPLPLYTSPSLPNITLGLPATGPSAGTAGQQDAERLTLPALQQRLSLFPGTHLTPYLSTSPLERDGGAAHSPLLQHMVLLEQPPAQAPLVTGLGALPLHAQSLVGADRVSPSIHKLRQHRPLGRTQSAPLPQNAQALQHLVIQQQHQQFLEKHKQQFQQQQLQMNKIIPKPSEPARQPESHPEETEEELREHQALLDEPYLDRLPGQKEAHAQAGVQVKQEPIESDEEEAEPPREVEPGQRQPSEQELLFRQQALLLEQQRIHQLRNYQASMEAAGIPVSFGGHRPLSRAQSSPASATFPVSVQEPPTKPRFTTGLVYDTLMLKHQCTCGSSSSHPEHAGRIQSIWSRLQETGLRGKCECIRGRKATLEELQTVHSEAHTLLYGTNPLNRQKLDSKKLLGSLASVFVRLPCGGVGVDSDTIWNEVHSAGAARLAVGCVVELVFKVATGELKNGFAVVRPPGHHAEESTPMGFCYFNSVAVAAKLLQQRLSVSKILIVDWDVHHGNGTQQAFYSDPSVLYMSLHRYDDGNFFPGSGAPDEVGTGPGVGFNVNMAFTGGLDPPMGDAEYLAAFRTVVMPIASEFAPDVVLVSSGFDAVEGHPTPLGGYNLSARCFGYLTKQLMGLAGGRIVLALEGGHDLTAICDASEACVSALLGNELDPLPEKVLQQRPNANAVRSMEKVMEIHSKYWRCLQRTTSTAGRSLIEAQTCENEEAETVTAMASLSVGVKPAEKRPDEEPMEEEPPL
UniProt P42338: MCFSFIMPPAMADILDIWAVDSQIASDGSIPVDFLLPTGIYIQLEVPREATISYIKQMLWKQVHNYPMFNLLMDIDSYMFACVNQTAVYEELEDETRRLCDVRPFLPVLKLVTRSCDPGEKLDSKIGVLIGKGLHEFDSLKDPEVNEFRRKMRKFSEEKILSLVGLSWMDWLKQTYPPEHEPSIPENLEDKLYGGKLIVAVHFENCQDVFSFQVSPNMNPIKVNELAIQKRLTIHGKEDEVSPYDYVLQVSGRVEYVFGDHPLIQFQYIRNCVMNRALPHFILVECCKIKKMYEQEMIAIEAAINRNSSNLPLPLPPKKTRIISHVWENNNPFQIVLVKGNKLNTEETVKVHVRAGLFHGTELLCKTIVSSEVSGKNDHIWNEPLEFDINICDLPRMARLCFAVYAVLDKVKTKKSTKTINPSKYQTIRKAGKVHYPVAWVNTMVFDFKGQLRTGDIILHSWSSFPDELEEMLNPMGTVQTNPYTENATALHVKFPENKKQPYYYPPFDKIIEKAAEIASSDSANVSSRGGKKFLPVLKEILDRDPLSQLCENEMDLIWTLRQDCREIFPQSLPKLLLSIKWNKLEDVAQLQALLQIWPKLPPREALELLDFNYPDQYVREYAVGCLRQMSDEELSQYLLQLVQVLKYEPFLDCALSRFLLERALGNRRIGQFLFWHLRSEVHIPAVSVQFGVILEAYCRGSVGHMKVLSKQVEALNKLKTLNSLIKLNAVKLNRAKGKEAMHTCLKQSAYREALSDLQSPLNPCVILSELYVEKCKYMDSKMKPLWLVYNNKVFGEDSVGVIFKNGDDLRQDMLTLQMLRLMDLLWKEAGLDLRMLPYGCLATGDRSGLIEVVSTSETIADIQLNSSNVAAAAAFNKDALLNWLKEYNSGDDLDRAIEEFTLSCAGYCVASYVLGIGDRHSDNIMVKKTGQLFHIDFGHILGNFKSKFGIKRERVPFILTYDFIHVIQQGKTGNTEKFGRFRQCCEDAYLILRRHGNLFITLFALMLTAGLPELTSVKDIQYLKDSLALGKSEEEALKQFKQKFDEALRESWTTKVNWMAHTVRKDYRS
UniProt Q13547, whole entry, species assumed: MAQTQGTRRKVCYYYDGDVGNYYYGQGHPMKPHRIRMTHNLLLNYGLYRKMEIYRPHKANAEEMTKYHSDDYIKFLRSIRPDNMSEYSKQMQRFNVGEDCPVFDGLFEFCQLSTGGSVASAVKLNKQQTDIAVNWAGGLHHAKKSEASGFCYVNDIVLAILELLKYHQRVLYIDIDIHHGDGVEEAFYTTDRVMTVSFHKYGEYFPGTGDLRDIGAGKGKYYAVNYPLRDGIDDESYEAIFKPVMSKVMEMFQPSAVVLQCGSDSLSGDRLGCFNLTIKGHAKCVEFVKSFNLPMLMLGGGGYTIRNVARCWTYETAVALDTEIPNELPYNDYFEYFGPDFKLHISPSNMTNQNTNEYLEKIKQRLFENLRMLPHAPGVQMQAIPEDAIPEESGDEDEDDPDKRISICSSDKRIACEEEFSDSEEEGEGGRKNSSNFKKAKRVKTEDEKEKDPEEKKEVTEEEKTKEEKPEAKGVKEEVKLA
UniProt Q9UQL6, whole entry, species assumed: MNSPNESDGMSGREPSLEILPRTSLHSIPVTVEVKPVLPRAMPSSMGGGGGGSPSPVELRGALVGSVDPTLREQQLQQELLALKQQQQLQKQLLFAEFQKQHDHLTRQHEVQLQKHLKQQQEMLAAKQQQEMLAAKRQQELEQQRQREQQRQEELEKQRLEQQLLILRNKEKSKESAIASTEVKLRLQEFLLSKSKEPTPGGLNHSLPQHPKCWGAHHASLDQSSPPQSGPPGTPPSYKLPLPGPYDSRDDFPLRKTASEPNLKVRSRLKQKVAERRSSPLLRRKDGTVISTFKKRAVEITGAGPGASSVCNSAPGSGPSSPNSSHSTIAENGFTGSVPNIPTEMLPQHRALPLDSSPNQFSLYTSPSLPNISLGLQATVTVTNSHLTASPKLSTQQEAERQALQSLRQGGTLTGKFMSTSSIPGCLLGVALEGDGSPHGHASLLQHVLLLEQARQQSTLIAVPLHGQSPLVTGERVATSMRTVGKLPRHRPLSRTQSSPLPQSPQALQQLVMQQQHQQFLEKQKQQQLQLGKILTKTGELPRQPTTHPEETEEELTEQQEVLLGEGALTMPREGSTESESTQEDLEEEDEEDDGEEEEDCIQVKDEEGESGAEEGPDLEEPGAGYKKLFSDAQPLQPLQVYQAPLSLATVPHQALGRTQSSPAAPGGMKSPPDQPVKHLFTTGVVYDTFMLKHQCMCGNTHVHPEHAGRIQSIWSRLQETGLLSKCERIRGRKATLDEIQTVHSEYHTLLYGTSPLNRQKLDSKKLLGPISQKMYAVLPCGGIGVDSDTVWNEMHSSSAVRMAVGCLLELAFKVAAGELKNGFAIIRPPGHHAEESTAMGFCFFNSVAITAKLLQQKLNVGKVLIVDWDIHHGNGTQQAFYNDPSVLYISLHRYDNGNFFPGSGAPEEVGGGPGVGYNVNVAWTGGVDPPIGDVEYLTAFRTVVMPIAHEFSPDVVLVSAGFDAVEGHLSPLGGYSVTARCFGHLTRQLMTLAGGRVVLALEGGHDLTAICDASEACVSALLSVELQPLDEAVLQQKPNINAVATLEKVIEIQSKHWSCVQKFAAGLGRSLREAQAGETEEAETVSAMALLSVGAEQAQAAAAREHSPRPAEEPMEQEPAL
UniProt Q92769, whole entry, species assumed: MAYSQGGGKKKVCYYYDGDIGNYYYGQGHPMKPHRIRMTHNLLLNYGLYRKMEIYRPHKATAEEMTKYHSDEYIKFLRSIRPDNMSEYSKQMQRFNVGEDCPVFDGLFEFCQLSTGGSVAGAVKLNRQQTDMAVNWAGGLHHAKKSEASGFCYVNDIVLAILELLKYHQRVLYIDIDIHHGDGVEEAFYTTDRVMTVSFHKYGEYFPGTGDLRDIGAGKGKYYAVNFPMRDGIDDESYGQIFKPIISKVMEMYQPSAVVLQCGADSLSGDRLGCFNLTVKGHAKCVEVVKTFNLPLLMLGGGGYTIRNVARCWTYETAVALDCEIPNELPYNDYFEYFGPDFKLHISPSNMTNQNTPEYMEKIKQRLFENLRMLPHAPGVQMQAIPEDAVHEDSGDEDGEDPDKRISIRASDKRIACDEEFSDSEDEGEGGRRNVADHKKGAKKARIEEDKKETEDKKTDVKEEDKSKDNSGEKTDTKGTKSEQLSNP
UniProt O15379, whole entry, species assumed: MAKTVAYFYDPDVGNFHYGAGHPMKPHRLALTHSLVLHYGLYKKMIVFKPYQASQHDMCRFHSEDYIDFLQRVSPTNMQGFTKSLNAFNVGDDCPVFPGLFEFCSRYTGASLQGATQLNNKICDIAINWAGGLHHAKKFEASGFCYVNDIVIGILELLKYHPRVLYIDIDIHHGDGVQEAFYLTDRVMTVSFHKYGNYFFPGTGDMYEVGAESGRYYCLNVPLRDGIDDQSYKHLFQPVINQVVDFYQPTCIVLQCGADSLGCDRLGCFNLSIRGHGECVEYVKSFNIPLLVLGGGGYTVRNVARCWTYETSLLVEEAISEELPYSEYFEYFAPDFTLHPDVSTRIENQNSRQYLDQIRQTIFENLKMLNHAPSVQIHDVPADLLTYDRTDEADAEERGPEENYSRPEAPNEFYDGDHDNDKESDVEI

Assays:
Format in all cases: biochemical
HDAC9 = HDAC9 (Homo sapiens, UniProt Q9UKV0); assay: HDAC Fluorescent Activity Assay
HDAC10 = target: T1, HDAC10 (Homo sapiens, UniProt Q969S8); assay: HDAC Fluorescent Activity Assay
T1 sequence (Q969S8 1-669): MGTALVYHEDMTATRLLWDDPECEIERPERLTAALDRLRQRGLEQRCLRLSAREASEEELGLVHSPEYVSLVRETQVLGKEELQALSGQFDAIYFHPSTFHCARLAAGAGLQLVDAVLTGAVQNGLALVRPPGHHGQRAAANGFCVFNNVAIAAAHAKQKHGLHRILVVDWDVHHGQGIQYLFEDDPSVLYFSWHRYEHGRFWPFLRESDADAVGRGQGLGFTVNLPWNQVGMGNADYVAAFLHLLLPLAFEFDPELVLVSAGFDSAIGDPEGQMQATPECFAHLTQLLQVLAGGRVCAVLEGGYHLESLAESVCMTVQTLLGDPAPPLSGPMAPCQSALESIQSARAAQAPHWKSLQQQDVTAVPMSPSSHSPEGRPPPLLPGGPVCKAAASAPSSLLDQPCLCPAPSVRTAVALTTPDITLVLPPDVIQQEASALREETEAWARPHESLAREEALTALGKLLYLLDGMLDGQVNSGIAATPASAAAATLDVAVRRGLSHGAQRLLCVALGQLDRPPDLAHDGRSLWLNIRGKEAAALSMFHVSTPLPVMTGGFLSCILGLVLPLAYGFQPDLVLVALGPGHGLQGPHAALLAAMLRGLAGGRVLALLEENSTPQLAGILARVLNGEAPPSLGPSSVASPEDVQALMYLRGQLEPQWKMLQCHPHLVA

HDAC4 = HDAC4 (Homo sapiens, UniProt P56524); assay: HDAC Fluorescent Activity Assay
PI3Kβ = PI3Kβ (Homo sapiens, UniProt P42338); assay: PI3Kβ kinase assay (HTRF)
Procedure: The PIP3 product is detected by displacement of biotin-PIP3 from an energy transfer complex consisting of Europium labeled anti-GST monoclonal antibody, a GST-tagged pleckstrin homology (PH) domain, biotinylated PIP3 and Streptavidin-Allophycocyanin (APC). […] The PIP3 product formed by PI 3-Kinase(h) activity displaces biotin-PIP3 from the complex resulting in a loss of energy transfer, and thus, a decrease in signal.
First, the kinase reaction with PIP2 substrate is carried out in the presence of ATP, and the reaction is quenched with stop Solution, and then, finally detect by adding Detection Mixture followed by incubation.
HEPES 50 mM (pH7.0), NaN3 0.02%, BSA 0.01%, Orthovanadate 0.1 mM, 1% DMSO.
Detection buffer: HEPES 10 mM (pH7.0), BSA 0.02%, KF 0.16 M, EDTA 4 mM.
10 μM PIP2 substrate (PI(4,5)P2)
10 μM ATP under standard conditions
1. Prepare substrate in freshly prepared Reaction Buffer.
2. Deliver kinase into the substrate solution and gently mix.
3. Deliver compounds in 100% DMSO into the kinase reaction mixture by Acoustic technology (Echo550; nanoliter range), incubate for 10 min at room temperature.
4. Deliver ATP into the reaction mixture to initiate the reaction.
5. Incubate for 30 min at 30° C.
6. Quench the reaction with Stop Solution.
7. Add Detection Mixture, and incubate for overnight.
The emission ratio is converted into μM PIP3 production based on PIP3 standard curves.
The nonlinear regression to obtain the standard curve and IC50 values are performed using Graphpad Prism software.

HDAC8 = target: T2, HDAC8 (Homo sapiens, UniProt Q9BY41); assay: HDAC Fluorescent Activity Assay
T2 sequence (Q9BY41 1-377): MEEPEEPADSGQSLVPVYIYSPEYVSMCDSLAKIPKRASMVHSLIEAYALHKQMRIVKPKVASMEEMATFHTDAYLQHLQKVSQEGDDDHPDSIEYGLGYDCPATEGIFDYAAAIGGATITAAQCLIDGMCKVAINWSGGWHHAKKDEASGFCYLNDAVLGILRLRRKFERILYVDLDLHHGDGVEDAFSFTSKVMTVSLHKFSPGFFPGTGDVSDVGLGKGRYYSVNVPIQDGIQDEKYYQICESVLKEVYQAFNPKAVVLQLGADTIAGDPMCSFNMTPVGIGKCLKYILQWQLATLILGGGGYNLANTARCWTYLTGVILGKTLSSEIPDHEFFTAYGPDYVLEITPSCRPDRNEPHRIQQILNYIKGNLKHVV

HDAC7 = target: T3, HDAC7 (Homo sapiens, UniProt Q8WUI4); assay: HDAC Fluorescent Activity Assay
T3 sequence (Q8WUI4 1-952): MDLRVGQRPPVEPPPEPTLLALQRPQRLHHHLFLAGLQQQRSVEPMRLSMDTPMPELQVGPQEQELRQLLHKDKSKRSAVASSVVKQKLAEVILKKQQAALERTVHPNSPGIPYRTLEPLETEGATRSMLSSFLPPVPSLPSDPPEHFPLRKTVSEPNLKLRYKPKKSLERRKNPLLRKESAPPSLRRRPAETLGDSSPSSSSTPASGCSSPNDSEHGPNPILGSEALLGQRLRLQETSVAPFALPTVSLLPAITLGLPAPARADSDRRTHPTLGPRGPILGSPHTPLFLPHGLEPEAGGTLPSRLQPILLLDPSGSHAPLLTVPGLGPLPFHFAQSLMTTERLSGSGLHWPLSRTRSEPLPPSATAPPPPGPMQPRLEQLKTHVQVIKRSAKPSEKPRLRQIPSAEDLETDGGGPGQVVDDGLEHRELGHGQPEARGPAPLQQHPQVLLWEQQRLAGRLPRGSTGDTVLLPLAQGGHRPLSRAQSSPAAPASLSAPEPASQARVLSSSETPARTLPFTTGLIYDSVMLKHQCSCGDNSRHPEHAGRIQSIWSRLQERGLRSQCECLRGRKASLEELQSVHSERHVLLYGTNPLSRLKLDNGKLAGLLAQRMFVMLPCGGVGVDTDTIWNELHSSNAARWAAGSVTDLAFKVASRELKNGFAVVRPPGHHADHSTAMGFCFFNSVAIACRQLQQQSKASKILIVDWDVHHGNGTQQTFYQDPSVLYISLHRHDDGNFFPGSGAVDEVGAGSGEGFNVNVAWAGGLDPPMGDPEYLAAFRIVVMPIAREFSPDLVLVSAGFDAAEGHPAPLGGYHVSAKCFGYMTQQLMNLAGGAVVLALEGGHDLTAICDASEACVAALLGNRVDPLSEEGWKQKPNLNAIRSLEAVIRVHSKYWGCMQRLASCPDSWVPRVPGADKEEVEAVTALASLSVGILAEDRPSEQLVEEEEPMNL

HDAC1 = HDAC1 (Homo sapiens, UniProt Q13547); assay: HDAC Fluorescent Activity Assay
HDAC5 = HDAC5 (Homo sapiens, UniProt Q9UQL6); assay: HDAC Fluorescent Activity Assay
HDAC2 = HDAC2 (Homo sapiens, UniProt Q92769); assay: HDAC Fluorescent Activity Assay
HDAC11 = target: T4, HDAC11 (Homo sapiens, UniProt Q96DB2); assay: HDAC Fluorescent Activity Assay
T4 sequence (Q96DB2 1-347): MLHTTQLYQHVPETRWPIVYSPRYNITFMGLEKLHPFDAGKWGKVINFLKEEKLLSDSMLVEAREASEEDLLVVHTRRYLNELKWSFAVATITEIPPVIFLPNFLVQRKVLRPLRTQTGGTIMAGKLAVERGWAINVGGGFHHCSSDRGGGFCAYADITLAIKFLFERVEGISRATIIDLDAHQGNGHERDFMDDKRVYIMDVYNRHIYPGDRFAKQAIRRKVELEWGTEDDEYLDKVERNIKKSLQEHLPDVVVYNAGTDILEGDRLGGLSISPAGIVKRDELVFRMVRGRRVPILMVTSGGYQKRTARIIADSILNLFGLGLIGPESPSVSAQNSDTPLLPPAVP

HDAC3 = HDAC3 (Homo sapiens, UniProt O15379); assay: HDAC Fluorescent Activity Assay

O=C(NO)c1ccc(CNc2cccc3nc(C4CC4)n(-c4ccccc4)c(=O)c23)cc1 [LXI, 4-(((2-cyclopropyl-4-oxo-3-phenyl-3,4-dihydroquinazolin-5-yl)amino)methyl)-N-hydroxybenzamide]
> 10 fold: HDAC6 Selectivity Over HDAC9 (HDAC9) | HDAC6 Selectivity Over HDAC10 (HDAC10) | HDAC6 Selectivity Over HDAC4 (HDAC4) | PI3Kδ Selectivity Over PI3Kβ (PI3Kβ) | HDAC6 Selectivity Over HDAC8 (HDAC8) | HDAC6 Selectivity Over HDAC7 (HDAC7) | HDAC6 Selectivity Over HDAC1 (HDAC1) | HDAC6 Selectivity Over HDAC5 (HDAC5) | HDAC6 Selectivity Over HDAC2 (HDAC2) | HDAC6 Selectivity Over HDAC11 (HDAC11) | HDAC6 Selectivity Over HDAC3 (HDAC3)

Cc1nc2cccc(NCCCCC(=O)NO)c2c(=O)n1-c1ccccc1 [LXII, N-hydroxy-5-((2-methyl-4-oxo-3-phenyl-3,4-dihydroquinazolin-5-yl)amino)pentanamide]
> 10 fold: HDAC6 Selectivity Over HDAC9 (HDAC9) | HDAC6 Selectivity Over HDAC10 (HDAC10) | HDAC6 Selectivity Over HDAC4 (HDAC4) | PI3Kδ Selectivity Over PI3Kβ (PI3Kβ) | HDAC6 Selectivity Over HDAC7 (HDAC7) | HDAC6 Selectivity Over HDAC1 (HDAC1) | HDAC6 Selectivity Over HDAC5 (HDAC5) | HDAC6 Selectivity Over HDAC2 (HDAC2) | HDAC6 Selectivity Over HDAC11 (HDAC11) | HDAC6 Selectivity Over HDAC3 (HDAC3)
< 10 fold: HDAC6 Selectivity Over HDAC8 (HDAC8)

O=C(CCCCNc1cccc2nc(C3CC3)n(-c3ccccc3)c(=O)c12)NO [LXIII, 5-((2-cyclopropyl-4-oxo-3-phenyl-3,4-dihydroquinazolin-5-yl)amino)-N-hydroxypentanamide]
< 10 fold: HDAC6 Selectivity Over HDAC8 (HDAC8)
> 10 fold: HDAC6 Selectivity Over HDAC9 (HDAC9) | HDAC6 Selectivity Over HDAC10 (HDAC10) | HDAC6 Selectivity Over HDAC4 (HDAC4) | PI3Kδ Selectivity Over PI3Kβ (PI3Kβ) | HDAC6 Selectivity Over HDAC7 (HDAC7) | HDAC6 Selectivity Over HDAC1 (HDAC1) | HDAC6 Selectivity Over HDAC5 (HDAC5) | HDAC6 Selectivity Over HDAC2 (HDAC2) | HDAC6 Selectivity Over HDAC11 (HDAC11) | HDAC6 Selectivity Over HDAC3 (HDAC3)
